{"source": "the supplement of paper PMC8728848", "binders": {"B1": {"name": "CALR truncated at D342 (Homo sapiens) (protein)", "chain": "EPAVYFKEQFLDGDGWTSRWIESKHKSDFGKFVLSSGKFYGDEEKDKGLQTSQDARFYALSASFEPFSNKGQTLVVQFTVKHEQNIDCGGGYVKLFPNSLDQTDMHGDSEYNIMFGPDICGPGTKKVHVIFNYKGKNVLINKDIRCKDDEFTHLYTLIVRPDNTYEVKIDNSQVESGSLEDDWDFLPPKKIKDPDASKPEDWDERAKIDDPTDSKPEDWDKPEHIPDPDAKKPEDWDEEMDGEWEPPVIQNPEYKGEWKPRQIDNPDYKGTWIHPEIDNPEYSPDPSIYAYDNFGVLGLDLWQVKSGTIFDNFLITNDEAYAEEFGNETWGVTKAAEKQMKD"}}, "test_in_all_cases": "glycan array binding signal (z-score within array); higher = stronger binding", "conditions_in_all_cases": "glycan notation: IUPAC condensed, linker removed", "key": {"[1]": {"biological_target": "Gal6S(b1-3)GlcNAc6S", "outline": "(§1)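 Columns mapping to the same glycan were averaged after glycan names were converted to IUPAC-condensed notation. The data come from 3228 arrays in the Consortium for Functional Glycomics database, limited to those with an available protein sequence. Binding is reported as a within-array Z-score averaged across arrays of one protein sequence and across linkers.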"}, "[2]": {"biological_target": "Gal6S(b1-4)Glc", "outline": "as §1"}, "[3]": {"biological_target": "Gal6S(b1-4)Glc6S", "outline": "as §1"}, "[4]": {"biological_target": "Gal6S(b1-4)GlcNAc", "outline": "as §1"}, "[5]": {"biological_target": "Gal6S(b1-4)GlcNAc6S", "outline": "as §1"}, "[6]": {"biological_target": "GalNAc(a1-3)Gal", "outline": "as §1"}, "[7]": {"biological_target": "GalNAc(a1-3)GalNAc", "outline": "as §1"}, "[8]": {"biological_target": "GalNAc(a1-3)GalNAc(b1-3)Gal(a1-4)Gal(b1-4)Glc", "outline": "as §1"}, "[9]": {"biological_target": "GalNAc(a1-3)GalNAc(b1-3)Gal(a1-4)Gal(b1-4)GlcNAc", "outline": "as §1"}, "[10]": {"biological_target": "GalNAc(b1-3)Gal", "outline": "as §1"}, "[11]": {"biological_target": "GalNAc(b1-3)Gal(a1-4)Gal(b1-4)GlcNAc", "outline": "as §1"}, "[12]": {"biological_target": "GalNAc(b1-3)Gal(a1-4)Gal(b1-4)GlcNAc(b1-3)Gal(b1-4)Glc", "outline": "as §1"}, "[13]": {"biological_target": "GalNAc(b1-3)Gal(a1-6)Gal(b1-4)Glc", "outline": "as §1"}, "[14]": {"biological_target": "GalNAc(b1-3)GalNAc", "outline": "as §1"}, "[15]": {"biological_target": "GalNAc(b1-4)Gal(b1-4)Glc", "outline": "as §1"}, "[16]": {"biological_target": "GalNAc(b1-4)GlcNAc", "outline": "as §1"}, "[17]": {"biological_target": "GalNAc(b1-4)GlcNAc(b1-2)Man(a1-3)[GalNAc(b1-4)GlcNAc(b1-2)Man(a1-6)]Man(b1-4)GlcNAc(b1-4)GlcNAc", "outline": "as §1"}, "[18]": {"biological_target": "GalNAc(b1-4)GlcNAc6S", "outline": "as §1"}, "[19]": {"biological_target": "GalNAc(b1-6)GalNAc", "outline": "as §1"}, "[20]": {"biological_target": "GalNAc3S(b1-4)GlcNAc", "outline": "as §1"}, "[21]": {"biological_target": "GalNAc3S(b1-4)GlcNAc3S", "outline": "as §1"}, "[22]": {"biological_target": "GalNAc4S6S(b1-4)GlcNAc", "outline": "as §1"}, "[23]": {"biological_target": "GalNAc6S(b1-4)GlcNAc", "outline": "as §1"}, "[24]": {"biological_target": "Glc(a1-4)Glc", "outline": "as §1"}, "[25]": {"biological_target": "Glc(a1-4)Glc(a1-4)Glc(a1-4)Glc", "outline": "as §1"}, "[26]": {"biological_target": "Glc(a1-6)Glc(a1-6)Glc", "outline": "as §1"}, "[27]": {"biological_target": "Glc(a1-6)Glc(a1-6)Glc(a1-6)Glc", "outline": "as §1"}, "[28]": {"biological_target": "Glc(b1-4)Glc", "outline": "as §1"}, "[29]": {"biological_target": "Glc(b1-6)Glc", "outline": "as §1"}, "[30]": {"biological_target": "GlcA(b1-3)Gal", "outline": "as §1"}, "[31]": {"biological_target": "GlcA(b1-3)GlcNAc", "outline": "as §1"}, "[32]": {"biological_target": "GlcA(b1-6)Gal", "outline": "as §1"}, "[33]": {"biological_target": "GlcNAc(a1-3)Gal(b1-4)GlcNAc", "outline": "as §1"}, "[34]": {"biological_target": "GlcNAc(a1-4)Gal(b1-3)GlcNAc", "outline": "as §1"}, "[35]": {"biological_target": "GlcNAc(a1-4)Gal(b1-4)GalNAc", "outline": "as §1"}, "[36]": {"biological_target": "GlcNAc(a1-4)Gal(b1-4)GlcNAc", "outline": "as §1"}, "[37]": {"biological_target": "GlcNAc(a1-4)Gal(b1-4)GlcNAc(b1-3)Gal(b1-4)Glc", "outline": "as §1"}, "[38]": {"biological_target": "GlcNAc(a1-4)Gal(b1-4)GlcNAc(b1-3)Gal(b1-4)GlcNAc", "outline": "as §1"}}, "note": "This is one part of the list.", "data": [{"binder": "B1", "values": [{"measurement": "glycan array binding signal (z-score)", "setting": "[1]", "result": 0.101}, {"measurement": "glycan array binding signal (z-score)", "setting": "[2]", "result": -1.17}, {"measurement": "glycan array binding signal (z-score)", "setting": "[3]", "result": -0.868}, {"measurement": "glycan array binding signal (z-score)", "setting": "[4]", "result": -1.33}, {"measurement": "glycan array binding signal (z-score)", "setting": "[5]", "result": -1.01}, {"measurement": "glycan array binding signal (z-score)", "setting": "[6]", "result": 0.292}, {"measurement": "glycan array binding signal (z-score)", "setting": "[7]", "result": -0.195}, {"measurement": "glycan array binding signal (z-score)", "setting": "[8]", "result": 0.447}, {"measurement": "glycan array binding signal (z-score)", "setting": "[9]", "result": 0.128}, {"measurement": "glycan array binding signal (z-score)", "setting": "[10]", "result": 0.701}, {"measurement": "glycan array binding signal (z-score)", "setting": "[11]", "result": -1.14}, {"measurement": "glycan array binding signal (z-score)", "setting": "[12]", "result": -1.18}, {"measurement": "glycan array binding signal (z-score)", "setting": "[13]", "result": -0.627}, {"measurement": "glycan array binding signal (z-score)", "setting": "[14]", "result": -0.692}, {"measurement": "glycan array binding signal (z-score)", "setting": "[15]", "result": -0.061}, {"measurement": "glycan array binding signal (z-score)", "setting": "[16]", "result": 1.29}, {"measurement": "glycan array binding signal (z-score)", "setting": "[17]", "result": 0.19}, {"measurement": "glycan array binding signal (z-score)", "setting": "[18]", "result": -0.361}, {"measurement": "glycan array binding signal (z-score)", "setting": "[19]", "result": -0.211}, {"measurement": "glycan array binding signal (z-score)", "setting": "[20]", "result": 1.07}, {"measurement": "glycan array binding signal (z-score)", "setting": "[21]", "result": -0.7}, {"measurement": "glycan array binding signal (z-score)", "setting": "[22]", "result": 0.282}, {"measurement": "glycan array binding signal (z-score)", "setting": "[23]", "result": -0.249}, {"measurement": "glycan array binding signal (z-score)", "setting": "[24]", "result": -0.124}, {"measurement": "glycan array binding signal (z-score)", "setting": "[25]", "result": 0.784}, {"measurement": "glycan array binding signal (z-score)", "setting": "[26]", "result": 0.71}, {"measurement": "glycan array binding signal (z-score)", "setting": "[27]", "result": 0.722}, {"measurement": "glycan array binding signal (z-score)", "setting": "[28]", "result": 0.125}, {"measurement": "glycan array binding signal (z-score)", "setting": "[29]", "result": 0.447}, {"measurement": "glycan array binding signal (z-score)", "setting": "[30]", "result": -1.07}, {"measurement": "glycan array binding signal (z-score)", "setting": "[31]", "result": -0.61}, {"measurement": "glycan array binding signal (z-score)", "setting": "[32]", "result": 1.96}, {"measurement": "glycan array binding signal (z-score)", "setting": "[33]", "result": -0.73}, {"measurement": "glycan array binding signal (z-score)", "setting": "[34]", "result": 0.461}, {"measurement": "glycan array binding signal (z-score)", "setting": "[35]", "result": -0.521}, {"measurement": "glycan array binding signal (z-score)", "setting": "[36]", "result": -1.27}, {"measurement": "glycan array binding signal (z-score)", "setting": "[37]", "result": 0.573}, {"measurement": "glycan array binding signal (z-score)", "setting": "[38]", "result": -0.828}]}]}
